Experimental findings from the supplement of paper PMC10849652 are described below.

By UniProt entry, the sequences of proteins in these tests, tags left out. Where a name states a change or a piece, a line headed by the entry shows the natural chain unless it says otherwise.
UniProt O76062: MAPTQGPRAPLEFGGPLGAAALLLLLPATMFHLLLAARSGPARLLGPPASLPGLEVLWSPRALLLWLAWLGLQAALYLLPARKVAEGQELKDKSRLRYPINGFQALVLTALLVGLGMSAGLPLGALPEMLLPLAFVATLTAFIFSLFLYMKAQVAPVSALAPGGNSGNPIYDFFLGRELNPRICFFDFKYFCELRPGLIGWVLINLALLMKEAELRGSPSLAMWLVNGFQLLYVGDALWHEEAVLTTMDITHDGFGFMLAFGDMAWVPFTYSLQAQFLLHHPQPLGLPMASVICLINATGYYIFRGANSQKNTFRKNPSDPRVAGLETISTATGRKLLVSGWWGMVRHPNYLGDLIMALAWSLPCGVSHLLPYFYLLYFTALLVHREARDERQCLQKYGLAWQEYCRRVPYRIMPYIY
UniProt Q9BRN9: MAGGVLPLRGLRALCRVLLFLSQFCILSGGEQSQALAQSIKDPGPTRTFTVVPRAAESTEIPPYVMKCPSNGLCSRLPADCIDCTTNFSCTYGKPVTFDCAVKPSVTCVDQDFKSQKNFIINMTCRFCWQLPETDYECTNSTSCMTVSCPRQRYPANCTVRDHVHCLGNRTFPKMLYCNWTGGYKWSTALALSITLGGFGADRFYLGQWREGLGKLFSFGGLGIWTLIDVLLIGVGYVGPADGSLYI
UniProt Q7Z2Z1: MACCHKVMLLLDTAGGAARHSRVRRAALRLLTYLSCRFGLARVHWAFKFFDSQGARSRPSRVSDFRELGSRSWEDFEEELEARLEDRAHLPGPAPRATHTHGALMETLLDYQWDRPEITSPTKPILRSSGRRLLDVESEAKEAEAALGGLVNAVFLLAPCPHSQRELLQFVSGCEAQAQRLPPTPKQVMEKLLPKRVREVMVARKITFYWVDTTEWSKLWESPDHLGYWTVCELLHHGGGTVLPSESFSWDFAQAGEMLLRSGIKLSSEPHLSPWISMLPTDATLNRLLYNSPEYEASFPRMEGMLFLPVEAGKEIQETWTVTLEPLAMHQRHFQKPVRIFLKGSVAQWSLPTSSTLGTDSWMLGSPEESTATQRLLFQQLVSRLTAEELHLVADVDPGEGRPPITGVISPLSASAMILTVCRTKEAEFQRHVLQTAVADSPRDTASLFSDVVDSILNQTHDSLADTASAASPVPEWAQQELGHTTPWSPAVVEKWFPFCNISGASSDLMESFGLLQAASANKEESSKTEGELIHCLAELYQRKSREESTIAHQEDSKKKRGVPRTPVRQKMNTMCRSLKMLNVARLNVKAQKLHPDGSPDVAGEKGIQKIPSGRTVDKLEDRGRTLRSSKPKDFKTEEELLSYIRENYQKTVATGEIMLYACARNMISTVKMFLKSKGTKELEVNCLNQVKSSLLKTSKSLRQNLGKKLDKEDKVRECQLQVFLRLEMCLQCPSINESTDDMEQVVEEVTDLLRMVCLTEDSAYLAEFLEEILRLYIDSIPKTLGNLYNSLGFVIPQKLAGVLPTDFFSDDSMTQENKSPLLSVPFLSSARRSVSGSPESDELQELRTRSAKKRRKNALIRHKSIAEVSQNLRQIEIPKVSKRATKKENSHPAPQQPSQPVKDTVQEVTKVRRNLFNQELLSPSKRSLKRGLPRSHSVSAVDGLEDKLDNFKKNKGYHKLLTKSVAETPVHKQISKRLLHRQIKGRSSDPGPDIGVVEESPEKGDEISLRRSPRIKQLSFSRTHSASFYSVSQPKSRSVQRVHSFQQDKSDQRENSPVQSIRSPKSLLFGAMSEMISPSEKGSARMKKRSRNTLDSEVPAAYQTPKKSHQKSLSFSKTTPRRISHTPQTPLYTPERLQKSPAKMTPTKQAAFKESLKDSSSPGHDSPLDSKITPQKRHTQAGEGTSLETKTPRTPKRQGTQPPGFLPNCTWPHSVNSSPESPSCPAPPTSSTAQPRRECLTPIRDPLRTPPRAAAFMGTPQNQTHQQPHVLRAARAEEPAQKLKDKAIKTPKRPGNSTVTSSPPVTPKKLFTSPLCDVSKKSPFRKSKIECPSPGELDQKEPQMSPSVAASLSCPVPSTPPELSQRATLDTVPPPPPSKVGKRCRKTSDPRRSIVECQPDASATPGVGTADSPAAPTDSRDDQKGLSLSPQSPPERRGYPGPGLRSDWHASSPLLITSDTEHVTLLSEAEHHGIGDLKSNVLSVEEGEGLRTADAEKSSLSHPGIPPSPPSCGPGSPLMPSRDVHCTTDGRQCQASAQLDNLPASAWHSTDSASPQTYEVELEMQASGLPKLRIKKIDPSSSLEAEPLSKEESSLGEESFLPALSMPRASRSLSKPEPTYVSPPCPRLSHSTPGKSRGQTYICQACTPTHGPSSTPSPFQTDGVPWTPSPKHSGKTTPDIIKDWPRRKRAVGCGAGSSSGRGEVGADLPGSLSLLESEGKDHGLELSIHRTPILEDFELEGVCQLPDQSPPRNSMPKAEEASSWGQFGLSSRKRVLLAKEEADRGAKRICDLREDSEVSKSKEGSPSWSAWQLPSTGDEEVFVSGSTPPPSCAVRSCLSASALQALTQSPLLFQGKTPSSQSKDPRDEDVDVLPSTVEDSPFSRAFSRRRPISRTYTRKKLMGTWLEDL

Common to all, as to experiment: log2 fold change, soluble protein after heating vs DMSO (PISA); higher = thermal stabilisation; K562 lysate, 10 uM; active = over 0.2 and 3.5 SD of the protein, either way, in both replicates (recomputed)
Compound in assay [1]: CCn1cc(-c2ccnc3[nH]c(-c4cccc(CN(C)C)c4)cc23)c(-c2ccc(NC(=O)N(C)C)cc2)n1
The essentials:
(§1)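 A 30 min treatment with 10 μM compound was applied to crude K562 extract at 1 mg/mL protein in PBS pH 7.4 with 1 mM MgCl2. Heating for 3 min spanned 48°C-58°C, after which aliquots were pooled, adjusted to 0.5% NP-40 at 4°C and spun at 21,000xg for 90 min. TMTpro 16plex LC-MS/MS of the supernatant, with channel sums equalised, gave values recorded as log-two fold change in thermal stability against solvent controls, from duplicates.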

Compound in assay [2]: CN1CCC(CNc2ccc3ncc(-c4cccc(OC(F)(F)F)c4)n3n2)CC1
The essentials:
as §1

Compound in assay [3]: CN1CC[C@H](c2c(O)cc(O)c3c(=O)cc(-c4ccccc4Cl)oc23)[C@H](O)C1 [alvocidib]
The essentials:
as §1

Compound in assay [4]: CNC(=O)C1=CC=CC=C1NC2=NC(=NC=C2Cl)NC3=C(C=C(C=C3)N4CCOCC4)OC
The essentials:
as §1

Compound in assay [5]: CN1CCN(CCOc2cc(OC3CCOCC3)c3c(Nc4c(Cl)ccc5c4OCO5)ncnc3c2)CC1 [saracatinib]
The essentials:
as §1

Compound in assay [6]: CNc1nc(-c2ccc3c(N)n[nH]c3c2)cc(N2C[C@@H](C(=O)NC3CCCCC3)CC[C@H]2C)n1
The essentials: as §1

Compound in assay [7]: CCCS(=O)(=O)Nc1ccc(F)c(C(=O)c2c[nH]c3ncc(Cl)cc23)c1F
The essentials:
as §1

Compound in assay [8]: CCN(CCCOc1ccc2c(Nc3cc(CC(=O)Nc4cccc(F)c4)[nH]n3)ncnc2c1)CCOP(=O)(O)O [barasertib]
The essentials:
as §1

Compound in assay [9]: CC[C@@H]1C(=O)N(C)c2cnc(Nc3ccc(C(=O)N[C@H]4CC[C@H](N5CCN(CC6CC6)CC5)CC4)cc3OC)nc2N1C(C)C [volasertib]
The essentials:
as §1

Compound in assay [10]: CCn1c(C(=O)N(C2CC2)C2CC2)cc2c3c(ncn3C)c(Nc3cc(C)n(C)n3)nc21
In a few lines:
as §1

Compound in assay [11]: CN1CCN(c2nc(C3=C(c4c[nH]c5ccccc45)C(=O)NC3=O)c3ccccc3n2)CC1 [sotrastaurin]
The essentials: as §1

Compound in assay [12]: CN1CCc2c(c3ccccc3n2Cc2ccc(C(=O)NO)cc2)C1 [Tubastatin A]
The essentials: as §1

Compound in assay [13]: COc1cc2nc(-c3cc(F)ccc3O)nc(N[C@@H]3CNC[C@H]3C(C)(C)O)c2cc1OC
In a few lines:
as §1

Compound in assay [14]: CC[C@@H]1C(=O)N(C)c2cnc(Nc3ccc(C(=O)NC4CCN(C)CC4)cc3OC)nc2N1C1CCCC1
In a few lines:
as §1

Compound in assay [15]: COC(=O)N[C@@H](C)CNc1nccc(-c2cn(C(C)C)nc2-c2cc(Cl)cc(NS(C)(=O)=O)c2F)n1 [encorafenib]
The essentials:
as §1

Compound in assay [16]: COC(=O)[C@H](CCSC)NC(=O)C1=C(C=C(C=C1)NC[C@H](CS)N)C2=CC=CC=C2
The essentials:
as §1

Some of the results follow.

For TMEM129, the log2 fold change in assay [1] is inactive: 0.004; in assay [2], inactive: 0.006; in assay [3], inactive: -0.021; in assay [4], inactive: -0.028.
For TLE3 (UniProt H0YL70), the log2 fold change in assay [5] was inactive: 0.152; in [6], inactive: 0.153.
In the case of THOC2 (UniProt H0Y7U4), the log2 fold change in assay [7] is inactive: 0.061; in assay [8] it was inactive: -0.073; in assay [9], inactive: -0.038; in assay [10], inactive: 0.123; in assay [5] it was inactive: 0.02; in assay [11], inactive: -0.202. Also, the log2 fold change was inactive: 0.121 in assay [12], inactive: -0.042 in assay [6] and inactive: 0.039 in assay [13].
Turning to TM7SF2 (UniProt O76062), the log2 fold change in [1] is inactive: 0.02; in assay [2], inactive: 0.051; in assay [11] it was inactive: 0.31; in assay [3] it was inactive: 0.067.
For TJP1 (UniProt H0Y3R8), the log2 fold change was inactive: 0.048 in assay [1], inactive: -0.16 in assay [2] and inactive: 0.079 in assay [3].
Regarding TM2D3 (UniProt Q9BRN9), the log2 fold change in assay [8] was inactive: -0.105; in [14], inactive: -0.079; in assay [10], inactive: 0.199; in assay [1], active: -0.934; in assay [2], inactive: 0.444; in [3] it was inactive: -0.291. The log2 fold change in assay [12] is inactive: -0.125; in assay [4], inactive: 0.008; in assay [15], inactive: -0.116; in assay [16], inactive: -0.116.
Consider TICRR (UniProt Q7Z2Z1), for which the results for the log2 fold change in assay [5] and in assay [6] were inactive: 0 and inactive: -0.372, respectively.
